Experimental data reported in patent US20250215091A1, “Anti-GAL3 Antibodies and Compositions” (Les Laboratoires Servier, priority 2022, published 2025).
At least one compound was matched to its structure with a doubt left.

Legend:
Assay type in all cases: in vivo
plasma TNF alpha = test: Rat ARDS model (LPS challenge): plasma TNF alpha (MSD); conditions: 4 h following LPS challenge; vs LPS group; FIG. 18
Protocol: (§1) Positive control rats received 3 doses of sterile phosphate buffer at day minus 11, minus 6 and minus 1 prior LPS challenge (0.25 mg/kg by subcutaneous route at day 1). Negative control rats received one oral dose of Dexamethasone at 10 mg/kg (dissolved in 0.5% carboxymethyl cellulose in deionized water) 2 hours prior LPS challenge (0.25 mg/kg by subcutaneous route at day 1). LPS (lipopolysaccharide) causes an acute inflammatory response, whereas dexamethasone has anti-inflammatory effects thus being the reference treatment in this model.
(§2) Antibody-treated rats received 3 doses of antibodies (14 mg/kg) at day minus 11, minus 6 and minus 1 prior to LPS challenge (0.25 mg/kg by subcutaneous route at day 1). Each antibody was solubilized in sterile PBS before injection.
(§3) Control rats of the experiment received 3 doses of sterile phosphate buffer at day minus 11, minus 6 and minus 1 without LPS challenge at day 1.
For all rats, plasma sampling was performed 4 h following LPS challenge.
The impact of anti-Gal3 antibody treatment in LPS challenged rats were evaluated on plasma cytokine levels, namely TNF alpha and KC-GRO cytokines, and compared to the positive control group (LPS challenge with PBS treatment) (respectively FIG. 18A and FIG. 18B). TNF alpha and KC-GRO were quantified by using the MSD technology from Mesoscale.

rat model of ARDS [1] = test: Rat ARDS model (LPS challenge): neutrophils counts in BALF; conditions: antibodies 14 mg/kg x3 prior to LPS; dexamethasone 10 mg/kg oral; vs LPS group; FIG. 16
Protocol: as §1, §2, §3
(§4) The impact of anti-Gal3 antibody treatment in LPS challenged rats were evaluated by quantification of neutrophils in Bronchoalveolar Lavage Fluid and compared to the positive control group (LPS challenge with PBS treatment) (FIG. 16). […] Neutrophils numeration levels were decreased after treatment with anti-inflammatory dexamethasone.

rat model of ARDS [2] = test: Rat ARDS model (LPS challenge): total BALF protein (BCA assay); conditions: antibodies 14 mg/kg x3 prior to LPS; dexamethasone 10 mg/kg oral; vs LPS group; FIG. 17
Protocol: as §1, §2, §3
as §4, with “proteins (by BCA assay)” for “neutrophils”, “BALF” for “Bronchoalveolar Lavage Fluid”, “17). The presence of protein in BALF reflects the damage to the air-blood barrier.” for “16).”, “Total BALF protein” for “Neutrophils”

C[C@@H]1C[C@H]2[C@@H]3CCC4=CC(=O)C=C[C@]4(C)[C@@]3(F)[C@@H](O)C[C@]2(C)[C@@]1(O)C(=O)CO [dexamethasone, reference compound]
decreased: TNF alpha plasma levels (plasma TNF alpha) | neutrophils counts in BALF (rat model of ARDS [1]) | total BALF protein (rat model of ARDS [2])
